Laboratory results as given in PubChem BioAssay AID272 (DTP/NCI, 2004).
The list does not hold the whole screen: it is rich in T/C values a quarter to a half above the control, in often repeated tests (any T/C) and in doses without a T/C. Further doses and runs are listed elsewhere. T/C: endpoint of the treated group in % of that of the vehicle group. Some doses have a count of surviving animals in place of a T/C: the source holds a T/C of zero for them, seemingly a mark for toxic or unscored doses. Some survivor counts are full or nearly so, which does not show that the dose was tolerated: survival well below the control is almost never listed, so the zero probably covers shortened survival too. Counts of survivors are from the toxicity check (mostly the fifth day) where no day follows; animals may have died later. Schedules are NCI's codes, taken here to give the interval after Q, in days (D) or hours (H), and the number of doses after X. Some entries hold several experiments; their values stand side by side, smallest first. Where survival is the endpoint, the PubChem record calls one and a half times the control and up active, and a quarter to a half above the control has no call in these data; cut-offs in other NCI protocols can differ. Some T/C values carry the count of animals alive at the toxicity check (mostly the fifth day); where none is given, no animal had died by that day. Residues, ends and D or L forms follow the SMILES beside them. *: point of attachment. Trt = c1ccc(C(c2ccccc2)(c2ccccc2)*)cc1; Bn = c1ccc(C*)cc1

Test system: Lewis lung carcinoma i.m., BDF1 mice, T/C %
Experiment: NCI In Vivo Anticancer Drug Screen. Data for tumor model Lewis Lung Carcinoma (intramuscular) in B6D2F1 (BDF1) mice
Procedure, shortened: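 Compound given to mice with transplantable tumours; survival or tumour size compared against the vehicle control group, reported as T divided by C.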

[1] = T/C endpoint: median survival time, dose: 25.0 mg/kg/injection, schedule: Q01DX011 (ip), vehicle: saline with Tween-80, higher T/C = longer survival
[2] = T/C endpoint: median survival time, dose: 50.0 mg/kg/injection, schedule: Q01DX011 (ip), vehicle: saline with Tween-80, higher T/C = longer survival
[3] = T/C endpoint: median survival time, dose: 100.0 mg/kg/injection, schedule: Q01DX011 (ip), vehicle: saline with Tween-80, higher T/C = longer survival
[4] = T/C endpoint: mean tumor weight (est.), dose: 25.0 mg/kg/injection, schedule: Q01DX011 (ip), vehicle: saline with Tween-80, higher T/C = larger tumour
[5] = T/C endpoint: median survival time, dose: 16.0 mg/kg/injection, schedule: Q01DX009 (ip), vehicle: Klucel (hydroxypropylcellulose) (HPC), higher T/C = longer survival
[6] = T/C endpoint: median survival time, dose: 25.0 mg/kg/injection, schedule: Q01DX011 (ip), vehicle: saline, higher T/C = longer survival
[7] = T/C endpoint: median survival time, dose: 50.0 mg/kg/injection, schedule: Q01DX011 (ip), vehicle: saline, higher T/C = longer survival

C[C@]12CC[C@@H]3c4ccc(O)cc4CC[C@H]3[C@@H]1C[C@@H](O)[C@@H]2O was tested, and the survivor count (T/C endpoint: mean tumor weight, dose: 6.25 mg/kg/injection, schedule: Q01DX011 (ip), vehicle: saline with Tween-80, higher T/C = larger tumour) was 4 of 8, the survivor count (T/C endpoint: mean tumor weight, dose: 12.5 mg/kg/injection, schedule: Q01DX011 (ip), vehicle: saline with Tween-80, higher T/C = larger tumour) was 2 of 8 and the survivor count (T/C endpoint: mean tumor weight, dose: 50.0 mg/kg/injection, schedule: Q01DX011 (ip), vehicle: saline with Tween-80, higher T/C = larger tumour) was 2 of 8. For the same compound, the survivor count (T/C endpoint: mean tumor weight, dose: 100.0 mg/kg/injection, schedule: Q01DX011 (ip), vehicle: saline with Tween-80, higher T/C = larger tumour) was 3 of 8, the survivor count (T/C endpoint: median survival time, dose: 3.13 mg/kg/injection, schedule: Q01DX011 (ip), vehicle: saline with Tween-80, higher T/C = longer survival) was 8 of 8 and the survivor count (T/C endpoint: median survival time, dose: 6.25 mg/kg/injection, schedule: Q01DX011 (ip), vehicle: saline with Tween-80, higher T/C = longer survival) was 4 of 8. For the same compound, the survivor count (T/C endpoint: median survival time, dose: 12.5 mg/kg/injection, schedule: Q01DX011 (ip), vehicle: saline with Tween-80, higher T/C = longer survival) was 2 of 8, the survivor count [1] was 3 of 8 and the survivor count [2] was 2 of 8. For the same compound, the survivor count [3] was 3 of 8.
Cc1nc2ccccc2nc1CBr was tested, and the survivor count [4] was 2 of 8, the survivor count [1] was 2 of 8 and the survivor count [2] was 0 of 8.
With O=C(CCCl)N1CCN(C(=O)CCCl)c2ccccc21 the survivor count (T/C endpoint: mean tumor weight (est.), dose: 75.0 mg/kg/injection, schedule: Q01DX011 (ip), vehicle: saline with Tween-80, higher T/C = larger tumour) was 1 of 8 and the survivor count (T/C endpoint: median survival time, dose: 75.0 mg/kg/injection, schedule: Q01DX011 (ip), vehicle: saline with Tween-80, higher T/C = longer survival) was 1 of 8.
O=[N+]([O-])c1cc(Cl)cc2c1nc(NCCO)c1ccccc12 was tested, and the survivor count (T/C endpoint: mean tumor weight (est.), dose: 50.0 mg/kg/injection, schedule: Q01DX011 (ip), vehicle: saline with Tween-80, higher T/C = larger tumour) was 1 of 8, the survivor count [1] was 7 of 8 and the survivor count [2] was 1 of 8. For the same compound, the survivor count [3] was 0 of 8.
C[C@H]1CN1C1=CC(=O)C(N2C[C@@H]2C)=CC1=O was tested, and the T/C (T/C endpoint: median survival time, dose: 2.0 mg/kg/injection, schedule: Q01DX011 (ip), vehicle: saline with Tween-80, higher T/C = longer survival) was 136 % of control and the survivor count (T/C endpoint: median survival time, dose: 8.0 mg/kg/injection, schedule: Q01DX011 (ip), vehicle: saline with Tween-80, higher T/C = longer survival) was 0 of 8.
With NC(C=O)C(O)C(O)C(O)CO (configuration not stated) the T/C (T/C endpoint: median survival time, dose: 750.0 mg/kg/injection, schedule: Q01DX011 (ip), vehicle: saline, higher T/C = longer survival) was 129 % of control [7 of 8 alive].
For Clc1ccc2nc(CI)c(CI)nc2c1, the survivor count [4] was 3 of 8 and the survivor count [1] was 3 of 8.
For Nc1nc(CCl)nc(Nc2ccccc2)n1, the survivor count (T/C endpoint: mean tumor weight (est.), dose: 200.0 mg/kg/injection, schedule: Q01DX011 (ip), vehicle: saline with Tween-80, higher T/C = larger tumour) was 5 of 8, the survivor count (T/C endpoint: mean tumor weight (est.), dose: 400.0 mg/kg/injection, schedule: Q01DX011 (ip), vehicle: saline with Tween-80, higher T/C = larger tumour) was 4 of 8 and the survivor count (T/C endpoint: median survival time, dose: 200.0 mg/kg/injection, schedule: Q01DX011 (ip), vehicle: saline with Tween-80, higher T/C = longer survival) was 5 of 8. For the same compound, the survivor count (T/C endpoint: median survival time, dose: 400.0 mg/kg/injection, schedule: Q01DX011 (ip), vehicle: saline with Tween-80, higher T/C = longer survival) was 4 of 8.
For CSc1ncnc2c1ncn2C1OC(CO)C(O)C1O (configuration not stated), the survivor count (T/C endpoint: mean tumor weight, dose: 15.0 mg/kg/injection, schedule: Q01DX011 (ip), vehicle: saline, higher T/C = larger tumour) was 4 of 8, the survivor count (T/C endpoint: median survival time, dose: 15.0 mg/kg/injection, schedule: Q01DX011 (ip), vehicle: saline, higher T/C = longer survival) was 4 of 8 and the survivor count (T/C endpoint: median survival time, dose: 30.0 mg/kg/injection, schedule: Q01DX011 (ip), vehicle: saline, higher T/C = longer survival) was 0 of 8. The survivor count (T/C endpoint: median survival time, dose: 60.0 mg/kg/injection, schedule: Q01DX011 (ip), vehicle: saline, higher T/C = longer survival) was 0 of 8.
In the case of CCN1/C(=C/C=C/c2oc3ccccc3[n+]2CC)Oc2ccccc21, the survivor count (T/C endpoint: median survival time, dose: 75.0 micrograms/kg/injection, schedule: Q01DX011 (ip), vehicle: saline, higher T/C = longer survival) is reported as 8 of 8 and the survivor count (T/C endpoint: median survival time, dose: 150.0 micrograms/kg/injection, schedule: Q01DX011 (ip), vehicle: saline, higher T/C = longer survival) is reported as 8 of 8.
In the case of COC(=O)C(CSC(c1ccccc1)(c1ccccc1)c1ccccc1)NC(=O)C(CSCc1ccccc1)NC(C)=O (configuration not stated) (Ac-Cys(Bn)-Cys(Trt)-OMe; configuration not given here), the T/C (T/C endpoint: median survival time, dose: 4.0 mg/kg/injection, schedule: Q01DX009 (ip), vehicle: Klucel (hydroxypropylcellulose) (HPC), higher T/C = longer survival) is reported as 148 % of control and the T/C [5] is reported as 143 % of control.
For FC(F)c1nc2nc(Cl)c(Cl)nc2[nH]1, the survivor count (T/C endpoint: median survival time, dose: 8.0 mg/kg/injection, schedule: Q01DX011 (ip), vehicle: saline, higher T/C = longer survival) was 7 of 8, the survivor count (T/C endpoint: median survival time, dose: 16.0 mg/kg/injection, schedule: Q01DX011 (ip), vehicle: saline, higher T/C = longer survival) was 7 of 8 and the survivor count (T/C endpoint: median survival time, dose: 32.0 mg/kg/injection, schedule: Q01DX011 (ip), vehicle: saline, higher T/C = longer survival) was 8 of 8. The survivor count (T/C endpoint: median survival time, dose: 128.0 mg/kg/injection, schedule: Q01DX011 (ip), vehicle: saline, higher T/C = longer survival) was 3 of 8.
With CCOC(=O)c1nc(C)[nH]c(=O)c1C the survivor count (T/C endpoint: median survival time, dose: 32.0 mg/kg/injection, schedule: Q01DX009 (ip), vehicle: water, higher T/C = longer survival) was 10 of 10.
CC(C)NCC(=O)c1ccc(O)c(O)c1 was tested, and the survivor count (T/C endpoint: mean tumor weight (est.), dose: 170.0 mg/kg/injection, schedule: Q01DX011 (ip), vehicle: saline, higher T/C = larger tumour) was 2 of 8, the survivor count (T/C endpoint: median survival time, dose: 170.0 mg/kg/injection, schedule: Q01DX011 (ip), vehicle: saline, higher T/C = longer survival) was 2 of 8 and the survivor count (T/C endpoint: median survival time, dose: 340.0 mg/kg/injection, schedule: Q01DX011 (ip), vehicle: saline, higher T/C = longer survival) was 0 of 8.
CCCCCCCCCCCC[N+](C)(C)C (tested in a mixture with another compound) was tested, and the survivor count (T/C endpoint: median survival time, dose: 12.5 mg/kg/injection, schedule: Q01DX011 (ip), vehicle: saline, higher T/C = longer survival) was 0 of 8, the survivor count [6] was 0 of 8 and the survivor count [7] was 0 of 8.
COC12C(COC(N)=O)C3=C(C(=O)C(C)=C(N)C3=O)N1CC1C2N1C (configuration not stated) was tested, and the survivor count (T/C endpoint: median survival time, dose: 4.0 mg/kg/injection, schedule: Q01DX011 (ip), vehicle: saline + alcohol, higher T/C = longer survival) was 10 of 10, the survivor count (T/C endpoint: median survival time, dose: 8.0 mg/kg/injection, schedule: Q01DX009 (ip), vehicle: Klucel (hydroxypropylcellulose) (HPC), higher T/C = longer survival) was 10 of 10 and the survivor count (T/C endpoint: median survival time, dose: 8.0 mg/kg/injection, schedule: Q01DX011 (ip), vehicle: saline + alcohol, higher T/C = longer survival) was 6 of 10 and 10 of 10. The survivor count [5] was 10 of 10, the survivor count (T/C endpoint: median survival time, dose: 16.0 mg/kg/injection, schedule: Q01DX011 (ip), vehicle: saline + alcohol, higher T/C = longer survival) was 0 of 10 and 7 of 10 and the survivor count (T/C endpoint: median survival time, dose: 32.0 mg/kg/injection, schedule: Q01DX009 (ip), vehicle: Klucel (hydroxypropylcellulose) (HPC), higher T/C = longer survival) was 10 of 10. For the same compound, the survivor count (T/C endpoint: median survival time, dose: 32.0 mg/kg/injection, schedule: Q01DX011 (ip), vehicle: saline + alcohol, higher T/C = longer survival) was 0 of 10.
With CN1Cc2c(ccc3c2OCO3)[C@@H]2[C@H](O)Cc3cc4c(cc3[C@@H]21)OCO4 the survivor count (T/C endpoint: mean tumor weight, dose: 250.0 mg/kg/injection, schedule: Q01DX011 (ip), vehicle: saline, higher T/C = larger tumour) was 3 of 8 and the survivor count (T/C endpoint: median survival time, dose: 250.0 mg/kg/injection, schedule: Q01DX011 (ip), vehicle: saline, higher T/C = longer survival) was 3 of 8.
For CCCSc1ncnc2nc[nH]c12, the survivor count (T/C endpoint: mean tumor weight, dose: 50.0 mg/kg/injection, schedule: Q01DX011 (ip), vehicle: other, higher T/C = larger tumour) was 4 of 8, the survivor count (T/C endpoint: median survival time, dose: 50.0 mg/kg/injection, schedule: Q01DX011 (ip), vehicle: other, higher T/C = longer survival) was 4 of 8 and the survivor count (T/C endpoint: median survival time, dose: 100.0 mg/kg/injection, schedule: Q01DX011 (ip), vehicle: other, higher T/C = longer survival) was 0 of 8. For the same compound, the survivor count (T/C endpoint: median survival time, dose: 200.0 mg/kg/injection, schedule: Q01DX011 (ip), vehicle: other, higher T/C = longer survival) was 0 of 8 and the survivor count (T/C endpoint: median survival time, dose: 400.0 mg/kg/injection, schedule: Q01DX011 (ip), vehicle: other, higher T/C = longer survival) was 0 of 8.
For CNC(=S)N/N=C/CCC/C=N/NC(=S)NC, the survivor count (T/C endpoint: mean tumor weight (est.), dose: 150.0 mg/kg/injection, schedule: Q01DX011 (ip), vehicle: saline with Tween-80, higher T/C = larger tumour) was 4 of 8 and the survivor count (T/C endpoint: median survival time, dose: 150.0 mg/kg/injection, schedule: Q01DX011 (ip), vehicle: saline with Tween-80, higher T/C = longer survival) was 4 of 8.
In the case of CC(=O)[O][Hg][c]1s[c]([Hg][O]C(C)=O)[c]([Hg][O]C(C)=O)[c]1[Hg][O]C(C)=O, the survivor count (T/C endpoint: mean tumor weight (est.), dose: 25.0 mg/kg/injection, schedule: Q01DX011 (ip), vehicle: saline, higher T/C = larger tumour) is reported as 4 of 8, the survivor count (T/C endpoint: median survival time, dose: 6.25 mg/kg/injection, schedule: Q01DX011 (ip), vehicle: saline, higher T/C = longer survival) is reported as 6 of 8 and the survivor count [6] is reported as 4 of 8. The survivor count [7] was 0 of 8.
